From patent publication US5958445A, “Oral Formulations of S(+)-etodolac” (priority 1998, dated 1999)

Test system: taste receptors of the recipients mouth
Assay: Taste (organoleptic acceptability)
Settings: S(+) form: if it is not solubilized
Description: This invention relates to novel formulations of etodolac, also known as etodolac acid. More particularly, this invention relates to organoleptically acceptable oral formulations utilizing S(+)-etodolac. For the purposes of this description, organoleptically acceptable compounds, materials and formulations are those which can contact the taste receptors of the recipients mouth, particularly those in which the active ingredient can contact the taste receptors, and which are generally acceptable to the senses of the recipient, particularly the sense of taste.

In the case of `CCc1cccc2c3c([nH]c12)C(CC)(CC(=O)O)OCC3` (racemic) [etodolac, (±) 1,8-diethyl-1,3,4,9-tetrahydropyrano[3,4-b]indole-1-acetic acid], the taste is reported as “unpleasant, bitter taste”.

For `CCc1cccc2c3c([nH]c12)[C@](CC)(CC(=O)O)OCC3` [S(+)-etodolac, S(+) 1,8-diethyl-1,3,4,9-tetrahydropyrano[3,4-b]indole-1-acetic acid], the taste was “does not contain the unpleasant, bitter taste of the racemic etodolac”.
